Data taken from patent US6436927B1, “IL-8 receptor antagonists” (SmithKline Beecham Corporation, priority 1997, dated 2002).
Some entries share one result that the patent states for a list of compounds.

Target: recombinant human IL-8 type α and β receptors
Assay: Receptor binding assay, [125I] IL-8 / 125I Gro-α on CHO membranes
Settings: 125I IL-8 (0.25 nM) or 125I Gro-α; IL-8Rα or IL-8Rβ CHO membranes; receptor subtype not given; read-out: positive inhibitory activity, IC50 levels

Row | Compound | IC50
1 | O=C(Nc1ccccc1Br)Nc1cccc2c1NS(=O)(=O)C=C2 [Example 1, N-[8-(Sulfostyril)]-N′-[2-bromophenyl]urea] | < 30 µM
2 | O=C(Nc1ccccc1Br)Nc1cccc2c1NS(=O)(=O)CC2 [Example 2, N-[8-(3,4-Dihydro-1H-2,1-benzothiazine,2.2-dioxide)]-N′-[2-bromophenyl]urea] | < 30 µM
3 | O=C(Nc1ccccc1Br)Nc1cccc2c1NS(=O)(=O)CC2=O [Example 3, N-[8-(4-Keto-3,4-dihydrosulfostyril)]-N′(2-bromophenyl)urea] | < 30 µM
